Article PMC5437280

Chains of the proteins cited; added tags and fusions are not shown. Lines headed by an entry give the natural chain unless they say otherwise; changes in a name come on top.
UniProt Q9LID3: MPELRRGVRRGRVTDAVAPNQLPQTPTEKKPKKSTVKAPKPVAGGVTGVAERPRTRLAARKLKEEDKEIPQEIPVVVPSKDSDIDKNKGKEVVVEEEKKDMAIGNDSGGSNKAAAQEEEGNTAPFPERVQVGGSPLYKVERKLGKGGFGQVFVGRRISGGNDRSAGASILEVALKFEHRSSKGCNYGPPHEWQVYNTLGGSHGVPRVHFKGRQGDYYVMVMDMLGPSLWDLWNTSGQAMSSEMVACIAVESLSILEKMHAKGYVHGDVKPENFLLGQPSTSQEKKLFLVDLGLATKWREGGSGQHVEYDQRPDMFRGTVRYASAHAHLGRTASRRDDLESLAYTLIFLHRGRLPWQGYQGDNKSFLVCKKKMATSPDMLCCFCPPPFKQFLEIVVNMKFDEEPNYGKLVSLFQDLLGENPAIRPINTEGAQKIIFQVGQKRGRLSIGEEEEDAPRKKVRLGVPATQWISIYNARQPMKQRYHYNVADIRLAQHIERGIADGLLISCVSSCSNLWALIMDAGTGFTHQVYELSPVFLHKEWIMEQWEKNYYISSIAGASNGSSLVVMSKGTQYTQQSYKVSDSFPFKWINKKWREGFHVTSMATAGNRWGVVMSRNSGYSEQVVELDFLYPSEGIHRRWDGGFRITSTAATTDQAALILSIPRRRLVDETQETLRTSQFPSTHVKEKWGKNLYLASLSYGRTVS
UniProt P14713: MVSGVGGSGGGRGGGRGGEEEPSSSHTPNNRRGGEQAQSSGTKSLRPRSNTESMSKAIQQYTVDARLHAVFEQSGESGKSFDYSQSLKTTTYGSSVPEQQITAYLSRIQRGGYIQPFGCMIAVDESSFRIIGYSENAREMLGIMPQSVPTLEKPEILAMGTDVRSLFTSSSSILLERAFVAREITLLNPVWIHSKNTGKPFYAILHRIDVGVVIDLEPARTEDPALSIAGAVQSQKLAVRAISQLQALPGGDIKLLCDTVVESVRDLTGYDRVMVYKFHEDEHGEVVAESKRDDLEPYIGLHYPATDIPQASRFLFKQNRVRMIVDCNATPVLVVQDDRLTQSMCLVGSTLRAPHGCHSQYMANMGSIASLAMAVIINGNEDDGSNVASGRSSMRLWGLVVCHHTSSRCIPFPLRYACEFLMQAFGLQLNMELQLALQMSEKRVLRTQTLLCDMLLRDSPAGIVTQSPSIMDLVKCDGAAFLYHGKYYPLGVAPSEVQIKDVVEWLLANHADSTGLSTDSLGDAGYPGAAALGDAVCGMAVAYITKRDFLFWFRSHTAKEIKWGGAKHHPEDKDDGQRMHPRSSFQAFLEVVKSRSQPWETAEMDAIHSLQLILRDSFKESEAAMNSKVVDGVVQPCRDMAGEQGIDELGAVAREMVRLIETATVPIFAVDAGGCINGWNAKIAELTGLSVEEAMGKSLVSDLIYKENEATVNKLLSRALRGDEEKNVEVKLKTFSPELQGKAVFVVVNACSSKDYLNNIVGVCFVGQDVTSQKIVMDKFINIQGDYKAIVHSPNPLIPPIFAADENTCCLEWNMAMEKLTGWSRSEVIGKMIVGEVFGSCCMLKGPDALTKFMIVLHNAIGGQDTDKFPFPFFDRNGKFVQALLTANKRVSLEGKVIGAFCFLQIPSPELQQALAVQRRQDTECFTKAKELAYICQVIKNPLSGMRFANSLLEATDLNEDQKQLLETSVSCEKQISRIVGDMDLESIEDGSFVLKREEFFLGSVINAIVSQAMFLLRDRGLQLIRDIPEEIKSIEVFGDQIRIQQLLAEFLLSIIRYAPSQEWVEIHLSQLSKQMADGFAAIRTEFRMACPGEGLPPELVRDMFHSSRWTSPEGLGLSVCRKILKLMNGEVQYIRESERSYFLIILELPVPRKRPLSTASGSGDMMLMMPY

Columns and labels:
[1] = biological target: T1, PIF3:MYC (in vitro synthesized) (Arabidopsis) (UniProt O80536); experiment: co-IP; proteins synthesized in HeLa cell lysate, co-expressed or mixed 1 h at room temperature, diluted in PBS with 0.1% NP-40; bait captured with anti-MYC antibodies and protein G beads
T1 sequence: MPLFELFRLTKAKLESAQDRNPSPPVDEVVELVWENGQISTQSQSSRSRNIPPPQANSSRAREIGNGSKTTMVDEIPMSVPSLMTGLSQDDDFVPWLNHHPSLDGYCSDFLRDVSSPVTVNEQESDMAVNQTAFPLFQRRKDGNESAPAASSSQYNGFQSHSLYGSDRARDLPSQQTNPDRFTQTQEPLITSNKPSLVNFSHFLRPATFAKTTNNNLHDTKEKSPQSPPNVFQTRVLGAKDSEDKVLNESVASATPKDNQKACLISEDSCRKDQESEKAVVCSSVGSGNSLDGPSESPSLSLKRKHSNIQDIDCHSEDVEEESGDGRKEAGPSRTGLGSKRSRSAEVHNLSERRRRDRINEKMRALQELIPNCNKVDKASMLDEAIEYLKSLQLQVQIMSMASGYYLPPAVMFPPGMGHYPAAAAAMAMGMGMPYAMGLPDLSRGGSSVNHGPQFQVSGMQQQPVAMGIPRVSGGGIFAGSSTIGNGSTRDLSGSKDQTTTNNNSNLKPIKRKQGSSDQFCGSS

[2] = biological target: PPK1:CFP (Arabidopsis) (UniProt Q9LID3); experiment: co-IP; extracts of dark (Dk) or red-light-pulse (Rp) treated transgenic seedlings; PPK1:CFP bait precipitated with anti-GFP antibodies and protein A agarose, MOPS buffer pH 7.6, 150 mM NaCl, 4 °C; blots with anti-MYC, anti-phyB, anti-GFP

Substance	binding [1]	binding [2]
PPK1 used as prey (in vitro synthesized) (Arabidopsis) (enzyme)	binds	
phytochrome B (endogenous phyB) (from UniProt P14713 1-1172) (receptor)		binds

Results are given in words; binding and its absence hold for the method and conditions named. In cells and extracts the contact can be indirect. A result given as binding can be weak or reduced; the word gives no strength. For some assays here: Where a sequence is shown, tags or fusion partners need not be part of it.
